Results from US20210253709A1 (SUZHOU SMARTNUCLIDE BIOPHARMACEUTICAL, published 2021).
Results are given in words; binding and its absence hold for the method and conditions named. Some entries that bind do so weakly or less than the wild type. For some assays here: Tags and fused reporters may be left off the sequences shown.

Chains of the proteins cited; added tags and fusions are not shown. Lines headed by an entry give the natural chain unless they say otherwise; changes in a name come on top.
UniProt Q9NZQ7: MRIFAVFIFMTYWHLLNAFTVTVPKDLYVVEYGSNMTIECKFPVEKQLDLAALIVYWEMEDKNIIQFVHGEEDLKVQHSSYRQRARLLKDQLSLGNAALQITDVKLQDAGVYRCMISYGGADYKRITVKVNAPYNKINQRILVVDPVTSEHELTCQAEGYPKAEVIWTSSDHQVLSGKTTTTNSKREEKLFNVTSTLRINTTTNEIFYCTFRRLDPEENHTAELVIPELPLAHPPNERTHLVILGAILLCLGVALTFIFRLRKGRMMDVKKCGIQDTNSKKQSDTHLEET

Tests used:
[1] = molecular target: T1, PDL1-Fc fusion protein (human, UniProt Q9NZQ7 19-238, limits assumed); test: ELISA, PDL1-Fc coated at 0.5 ug/well, anti-his-HRP detection
T1 construct: Transiently expressed in HEK293 and used as the plate coat in the ELISAs; not shown: Fc part

[2] = molecular target: PDL1-muFc fusion protein (using mouse Fc) (UniProt Q9NZQ7); test: competitive ELISA, PDL1-muFc coated, excess PD1-Fc present, anti-his-HRP detection
[3] = molecular target: PDL1-muFc fusion protein (using mouse Fc) (UniProt Q9NZQ7); test: competitive ELISA on coated PDL1-muFc with excess PD1-Fc (10 ug per well) present, rising 109-chis, detection anti-his-HRP, OD405
[4] = molecular target: PD-L1 target protein (Biacore ligand) (UniProt Q9NZQ7); test: SPR (Biacore T200)

B1: 109-chis (VHH)
VHH: QVQLQESGGGSVQAGGSLRLSCTASGFSLDDSDMGWYRQARGNVCQLVSTIASDRSTYYTPSVKGRFTISHDRAKNTIYLQMNSLKPEDTAVYYCAAAPRLAYTTAMTCEGDFAYWGQGTQVTVSS
B1 was tested, and the binding [1] was “binds”, the binding [2] was “binds” and the binding [3] was “binds”.

B2: 109-K86R&P87A-cHis (VHH)
VHH: QVQLQESGGGSVQAGGSLRLSCTASGFSLDDSDMGWYRQARGNVCQLVSTIASDRSTYYTPSVKGRFTISHDRAKNTIYLQMNSLRAEDTAVYYCAAAPRLAYTTAMTCEGDFAYWGQGTQVTVSS
With B2 the binding [1] was “binds”.

B3: 109-RDNSE-cHis (VHH)
VHH: QVQLQESGGGSVQAGGSLRLSCTASGFSLDDSDMGWYRQARGNVCQLVSTIASDRSTYYTPSVKGRFTISRDNSENTIYLQMNSLKPEDTAVYYCAAAPRLAYTTAMTCEGDFAYWGQGTQVTVSS
With B3 the binding [1] was “binds”.

B4: 109-K64Q-cHis (VHH)
VHH: QVQLQESGGGSVQAGGSLRLSCTASGFSLDDSDMGWYRQARGNVCQLVSTIASDRSTYYTPSVQGRFTISHDRAKNTIYLQMNSLKPEDTAVYYCAAAPRLAYTTAMTCEGDFAYWGQGTQVTVSS
B4 was tested, and the binding [1] was “binds”.

B5: 109-R73N&K75E-cHis (VHH)
VHH: QVQLQESGGGSVQAGGSLRLSCTASGFSLDDSDMGWYRQARGNVCQLVSTIASDRSTYYTPSVKGRFTISHDNAENTIYLQMNSLKPEDTAVYYCAAAPRLAYTTAMTCEGDFAYWGQGTQVTVSS
For B5, the binding [1] was “binds”.

B6: 109 heavy-chain single domain antibody (VHH)
VHH: QVQLQESGGGSVQAGGSLRLSCTASGFSLDDSDMGWYRQARGNVCQLVSTIASDRSTYYTPSVKGRFTISHDRAKNTIYLQMNSLKPEDTAVYYCAAAPRLAYTTAMTCEGDFAYWGQGTQVTVSS
notes: Untagged form
B6 was tested, and the binding [4] was “binds”.
